Nine compounds from PubChem BioAssay AID330 (DTP/NCI, 2004) can be followed below.

The list does not hold the whole screen: it is rich in T/C values a quarter to a half above the control, in often repeated tests (any T/C) and in doses without a T/C. Further doses and runs are listed elsewhere. T/C gives the treated animals as a percentage of the vehicle group. Some entries give survivors of the animals treated and no T/C: the source holds a T/C of zero for them, seemingly a mark for toxic or unscored doses. Some survivor counts are full or nearly so, which does not show that the dose was tolerated: the source hardly ever lists a survival T/C far under the control, and the zero likely stands for such cases as well. Counts of survivors are from the toxicity check (mostly the fifth day) where no day follows; animals may have died later. Schedule codes are those of the source, taken here to give the interval after Q, in days (D) or hours (H), and the number of doses after X. Where survival is the endpoint, this PubChem deposit counts one and a half times the control or more as active, and values a quarter to a half above the control carry no call in these data; other NCI protocols may use other cut-offs. Some entries were tested several times; the values are given in rising order.

For this test, the system named is P388 leukemia ip, CD2F1 mice, survival T/C. Briefly: NCI In Vivo Anticancer Drug Screen. Data for tumor model P388 Leukemia (intraperitoneal) in CD2F1 (CDF1) mice. The following applies: T/C endpoint: median survival time, higher T/C = longer survival.
The mark [1] stands for this setting: dose: 240.0 mg/kg/injection, schedule: Q01DX005 (ip), vehicle: saline with Tween-80.

As to `NCCNc1ccc(NCCN)c2c1C(=O)c1ccccc1C2=O`, the T/C (dose: 1.56 mg/kg/injection, schedule: Q01DX009 (ip), vehicle: distilled water + alcohol) is 137 % of control. Further, the survivor count is, setting by setting: (dose: 32.0 mg/kg/injection, schedule: Q01DX009 (ip), vehicle: acid diluted with saline) 5 of 8; (dose: 50.0 mg/kg/injection, schedule: Q01DX009 (ip), vehicle: other) 6 of 6; (dose: 100.0 mg/kg/injection, schedule: Q01DX009 (ip), vehicle: other) 0 of 6; (dose: 200.0 mg/kg/injection, schedule: Q01DX009 (ip), vehicle: other) 1 of 6; (dose: 400.0 mg/kg/injection, schedule: Q01DX009 (ip), vehicle: other) 1 of 6.

In the case of `O=[N+]([O-])c1ccc(N2CCN(CCO)CC2)c2c1no[n+]2[O-]`, the survivor count is, setting by setting: (dose: 7.5 mg/kg/injection, schedule: Q01DX009 (ip), vehicle: saline) 6 of 6; (dose: 100.0 mg/kg/injection, schedule: Q01DX009 (ip), vehicle: suspension in saline) 5 of 6; (dose: 200.0 mg/kg/injection, schedule: Q01DX009 (ip), vehicle: suspension in saline) 0 of 6.

As for `COc1cc2c3c(c1OC)C(=O)C[C@@H]1CCCN(CC2)[C@H]31`, the survivor count is, setting by setting: (dose: 50.0 mg/kg/injection, schedule: Q01DX005 (ip), vehicle: Klucel (hydroxypropylcellulose) (HPC)) 0 of 6; (dose: 100.0 mg/kg/injection, schedule: Q01DX005 (ip), vehicle: Klucel (hydroxypropylcellulose) (HPC)) 0 of 6; (dose: 200.0 mg/kg/injection, schedule: Q01DX005 (ip), vehicle: Klucel (hydroxypropylcellulose) (HPC)) 0 of 6.

On to `O=C1C=CC(Nc2ccccc2[N+](=O)[O-])C1Nc1ccccc1[N+](=O)[O-]` (centres undefined), for which the survivor count under setting [1] is given as 3 of 6.

On to `COC1=C(N)C(=O)c2ncccc2C1=O`, for which the survivor count reads like this: (dose: 2.0 mg/kg/injection, schedule: Q01DX009 (ip), vehicle: DMSO) 6 of 6; (dose: 25.0 mg/kg/injection, schedule: Q01DX009 (ip), vehicle: saline with Tween-80) 2 of 6; (dose: 32.0 mg/kg/injection, schedule: Q01DX009 (ip), vehicle: DMSO) 0 of 6.

For `CSc1nc(COC(=O)NC(C)C)c(COC(=O)NC(C)C)n1C`, the T/C by setting is: (dose: 25.0 mg/kg/injection, schedule: Q01DX005 (ip), vehicle: Klucel + Tween-80) 125 % of control; (dose: 50.0 mg/kg/injection, schedule: Q01DX005 (ip), vehicle: Klucel + Tween-80) 130 and 134 % of control. The survivor count (dose: 400.0 mg/kg/injection, schedule: Q01DX005 (ip), vehicle: Klucel + Tween-80) is given as 6 of 6.

In the case of `CCCCCC(=O)SCC(=O)OCC(=O)[C@]1(O)Cc2c(O)c3c(c(O)c2[C@@H](OC2CC(N)C(O)C(C)O2)C1)C(=O)c1c(OC)cccc1C3=O` (some centres undefined), where the note is “dose: 0.39 mg/kg/injection, schedule: Q01DX009 (ip), vehicle: water”, the T/C is 148 % of control. The survivor count (dose: 12.5 mg/kg/injection, schedule: Q01DX009 (ip), vehicle: water) was 6 of 6 and the survivor count (dose: 25.0 mg/kg/injection, schedule: Q01DX009 (ip), vehicle: water) is 1 of 6.

Take `O=S(=O)(Nc1ccc(Cl)cc1C(F)(F)F)c1ccc(F)cc1`: the survivor count under setting [1] is listed as 2 of 6.

As for `CCN(CC)CCSS(=O)(=O)CCN(CC)CC`, the survivor count (dose: 200.0 mg/kg/injection, schedule: Q01DX005 (ip), vehicle: saline) is on record as 0 of 5.
